Measurements from the supplement of paper PMC10849652.
The other results are listed elsewhere or left out.

By UniProt entry, the sequences of proteins in these tests, tags left out. Where a name states a change or a piece, a line headed by the entry shows the natural chain unless it says otherwise.
UniProt Q13283, whole entry, looked up: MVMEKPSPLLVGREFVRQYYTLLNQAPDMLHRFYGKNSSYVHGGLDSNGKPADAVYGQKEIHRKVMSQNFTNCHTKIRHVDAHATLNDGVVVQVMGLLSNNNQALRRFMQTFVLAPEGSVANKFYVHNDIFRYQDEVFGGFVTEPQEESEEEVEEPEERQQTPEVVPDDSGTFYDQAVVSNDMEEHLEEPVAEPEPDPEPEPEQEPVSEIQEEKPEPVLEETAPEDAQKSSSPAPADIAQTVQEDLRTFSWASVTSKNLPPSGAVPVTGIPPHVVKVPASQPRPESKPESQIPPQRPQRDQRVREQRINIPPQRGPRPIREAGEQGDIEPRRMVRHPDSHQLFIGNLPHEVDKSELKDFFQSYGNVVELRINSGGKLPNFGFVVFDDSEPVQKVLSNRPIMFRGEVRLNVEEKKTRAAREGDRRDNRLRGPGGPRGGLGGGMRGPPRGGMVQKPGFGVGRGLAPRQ
UniProt Q8N9F7: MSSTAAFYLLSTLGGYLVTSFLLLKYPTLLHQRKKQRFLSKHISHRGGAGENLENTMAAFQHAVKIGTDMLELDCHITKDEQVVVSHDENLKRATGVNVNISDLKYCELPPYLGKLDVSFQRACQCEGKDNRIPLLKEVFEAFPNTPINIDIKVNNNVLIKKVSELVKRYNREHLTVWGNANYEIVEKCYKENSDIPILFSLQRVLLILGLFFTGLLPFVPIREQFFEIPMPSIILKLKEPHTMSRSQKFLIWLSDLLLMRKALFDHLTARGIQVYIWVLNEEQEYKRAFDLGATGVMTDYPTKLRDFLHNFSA
UniProt Q9BWH2: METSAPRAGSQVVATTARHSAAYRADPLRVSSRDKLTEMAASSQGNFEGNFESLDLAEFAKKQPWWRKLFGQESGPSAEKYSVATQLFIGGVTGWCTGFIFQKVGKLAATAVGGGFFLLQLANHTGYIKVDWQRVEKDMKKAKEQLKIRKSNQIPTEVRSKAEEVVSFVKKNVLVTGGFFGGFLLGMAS
UniProt P41250: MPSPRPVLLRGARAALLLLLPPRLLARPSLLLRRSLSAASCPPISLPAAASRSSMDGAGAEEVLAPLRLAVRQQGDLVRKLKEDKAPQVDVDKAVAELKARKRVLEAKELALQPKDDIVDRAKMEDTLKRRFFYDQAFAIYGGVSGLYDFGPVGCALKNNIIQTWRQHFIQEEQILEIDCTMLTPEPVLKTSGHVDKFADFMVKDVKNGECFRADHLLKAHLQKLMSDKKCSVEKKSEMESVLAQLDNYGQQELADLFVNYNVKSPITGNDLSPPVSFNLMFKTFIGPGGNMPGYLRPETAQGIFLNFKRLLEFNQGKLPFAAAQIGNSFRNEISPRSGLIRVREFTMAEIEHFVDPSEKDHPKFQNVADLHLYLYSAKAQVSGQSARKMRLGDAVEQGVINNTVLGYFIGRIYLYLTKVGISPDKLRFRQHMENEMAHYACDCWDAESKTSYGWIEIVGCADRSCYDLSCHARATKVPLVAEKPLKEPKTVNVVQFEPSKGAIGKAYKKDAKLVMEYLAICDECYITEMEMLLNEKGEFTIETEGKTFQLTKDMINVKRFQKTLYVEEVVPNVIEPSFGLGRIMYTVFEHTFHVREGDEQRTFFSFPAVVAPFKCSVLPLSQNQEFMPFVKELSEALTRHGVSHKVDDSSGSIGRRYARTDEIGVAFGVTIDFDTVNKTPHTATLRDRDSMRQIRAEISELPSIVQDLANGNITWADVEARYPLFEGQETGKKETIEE
UniProt Q8NB37: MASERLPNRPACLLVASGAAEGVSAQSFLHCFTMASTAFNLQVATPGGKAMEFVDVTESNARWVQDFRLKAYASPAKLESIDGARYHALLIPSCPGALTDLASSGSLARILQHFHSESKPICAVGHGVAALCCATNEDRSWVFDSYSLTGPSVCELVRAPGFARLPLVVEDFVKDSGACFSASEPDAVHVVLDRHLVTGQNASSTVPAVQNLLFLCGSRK
UniProt Q9NXN4: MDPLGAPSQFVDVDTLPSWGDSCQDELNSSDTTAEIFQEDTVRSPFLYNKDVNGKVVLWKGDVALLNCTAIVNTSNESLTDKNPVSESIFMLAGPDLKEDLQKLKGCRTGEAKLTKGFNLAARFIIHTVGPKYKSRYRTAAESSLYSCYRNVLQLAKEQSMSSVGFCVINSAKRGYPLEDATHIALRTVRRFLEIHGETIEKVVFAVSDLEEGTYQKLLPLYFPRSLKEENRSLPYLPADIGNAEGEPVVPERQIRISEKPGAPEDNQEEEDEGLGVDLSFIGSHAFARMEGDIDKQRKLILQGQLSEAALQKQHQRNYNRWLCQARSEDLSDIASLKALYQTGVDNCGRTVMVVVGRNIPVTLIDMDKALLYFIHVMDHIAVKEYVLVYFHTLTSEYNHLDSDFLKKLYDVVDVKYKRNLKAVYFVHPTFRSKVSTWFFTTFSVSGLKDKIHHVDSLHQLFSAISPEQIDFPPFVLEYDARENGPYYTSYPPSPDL
UniProt P60520, whole entry, looked up: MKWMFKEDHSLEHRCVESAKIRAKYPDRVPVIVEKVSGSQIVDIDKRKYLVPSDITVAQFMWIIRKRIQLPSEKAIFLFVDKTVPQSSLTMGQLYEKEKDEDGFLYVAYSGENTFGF
UniProt Q92947: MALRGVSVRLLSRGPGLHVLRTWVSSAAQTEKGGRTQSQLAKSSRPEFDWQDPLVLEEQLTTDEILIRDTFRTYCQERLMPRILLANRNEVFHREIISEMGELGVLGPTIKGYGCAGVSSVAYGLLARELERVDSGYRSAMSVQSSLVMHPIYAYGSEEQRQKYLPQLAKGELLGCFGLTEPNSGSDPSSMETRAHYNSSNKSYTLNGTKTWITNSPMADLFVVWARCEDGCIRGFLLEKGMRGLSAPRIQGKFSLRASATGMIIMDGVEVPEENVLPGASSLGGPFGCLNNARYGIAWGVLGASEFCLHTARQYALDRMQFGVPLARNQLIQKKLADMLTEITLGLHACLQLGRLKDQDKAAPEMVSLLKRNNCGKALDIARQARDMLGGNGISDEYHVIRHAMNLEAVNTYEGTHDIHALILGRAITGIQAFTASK
UniProt Q13480: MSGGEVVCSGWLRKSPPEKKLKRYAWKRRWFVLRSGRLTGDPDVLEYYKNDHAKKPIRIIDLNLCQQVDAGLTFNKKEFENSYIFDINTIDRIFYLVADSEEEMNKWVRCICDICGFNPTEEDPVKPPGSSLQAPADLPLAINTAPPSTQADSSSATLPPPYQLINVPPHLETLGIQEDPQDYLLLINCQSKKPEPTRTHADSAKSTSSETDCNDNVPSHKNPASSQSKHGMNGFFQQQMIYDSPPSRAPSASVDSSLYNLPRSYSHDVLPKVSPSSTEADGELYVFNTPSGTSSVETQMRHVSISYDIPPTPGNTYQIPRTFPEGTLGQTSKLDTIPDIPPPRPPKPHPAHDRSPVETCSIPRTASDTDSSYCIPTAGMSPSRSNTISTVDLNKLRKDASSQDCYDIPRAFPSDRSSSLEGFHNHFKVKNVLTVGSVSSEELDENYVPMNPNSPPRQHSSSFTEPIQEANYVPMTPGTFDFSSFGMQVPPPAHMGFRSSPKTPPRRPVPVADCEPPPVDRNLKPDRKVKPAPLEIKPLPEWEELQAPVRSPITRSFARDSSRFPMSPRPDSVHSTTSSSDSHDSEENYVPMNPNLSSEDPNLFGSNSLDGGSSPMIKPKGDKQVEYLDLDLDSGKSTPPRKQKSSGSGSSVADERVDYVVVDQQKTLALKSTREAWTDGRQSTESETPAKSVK
UniProt Q96RP9: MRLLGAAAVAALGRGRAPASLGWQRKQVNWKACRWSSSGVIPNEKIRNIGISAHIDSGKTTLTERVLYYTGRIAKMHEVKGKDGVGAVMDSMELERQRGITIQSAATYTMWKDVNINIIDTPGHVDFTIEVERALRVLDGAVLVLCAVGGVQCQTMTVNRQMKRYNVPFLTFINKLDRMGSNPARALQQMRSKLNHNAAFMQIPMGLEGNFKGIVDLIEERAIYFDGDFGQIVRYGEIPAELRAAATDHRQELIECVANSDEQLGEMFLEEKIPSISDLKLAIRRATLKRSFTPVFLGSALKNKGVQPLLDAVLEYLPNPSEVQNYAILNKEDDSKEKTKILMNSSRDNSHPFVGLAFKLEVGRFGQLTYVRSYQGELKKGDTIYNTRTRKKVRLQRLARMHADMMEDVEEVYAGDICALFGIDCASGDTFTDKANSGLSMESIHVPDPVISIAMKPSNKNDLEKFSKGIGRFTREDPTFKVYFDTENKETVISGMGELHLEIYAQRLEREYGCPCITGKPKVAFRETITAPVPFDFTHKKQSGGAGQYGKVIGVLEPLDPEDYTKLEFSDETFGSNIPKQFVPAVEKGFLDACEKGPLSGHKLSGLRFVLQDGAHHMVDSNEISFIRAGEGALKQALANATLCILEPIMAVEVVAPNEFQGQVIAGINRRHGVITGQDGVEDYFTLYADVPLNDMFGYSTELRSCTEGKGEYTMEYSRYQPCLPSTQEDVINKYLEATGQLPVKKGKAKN
UniProt Q8WXI9: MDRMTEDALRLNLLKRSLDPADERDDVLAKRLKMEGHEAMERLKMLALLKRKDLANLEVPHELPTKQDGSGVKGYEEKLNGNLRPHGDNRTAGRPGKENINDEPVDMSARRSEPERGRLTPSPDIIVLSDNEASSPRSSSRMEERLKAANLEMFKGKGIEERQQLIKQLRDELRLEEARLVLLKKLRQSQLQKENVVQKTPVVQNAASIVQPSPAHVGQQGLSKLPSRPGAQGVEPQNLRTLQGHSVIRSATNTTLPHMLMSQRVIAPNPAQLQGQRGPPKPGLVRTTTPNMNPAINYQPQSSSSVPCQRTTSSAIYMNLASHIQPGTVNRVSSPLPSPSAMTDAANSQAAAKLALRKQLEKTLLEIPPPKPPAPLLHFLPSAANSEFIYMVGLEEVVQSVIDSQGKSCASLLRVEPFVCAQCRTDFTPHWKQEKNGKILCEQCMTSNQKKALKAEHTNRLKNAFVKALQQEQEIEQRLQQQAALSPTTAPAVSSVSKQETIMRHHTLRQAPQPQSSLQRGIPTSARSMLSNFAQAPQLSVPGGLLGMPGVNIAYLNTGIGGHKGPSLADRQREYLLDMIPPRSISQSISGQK
UniProt P23434: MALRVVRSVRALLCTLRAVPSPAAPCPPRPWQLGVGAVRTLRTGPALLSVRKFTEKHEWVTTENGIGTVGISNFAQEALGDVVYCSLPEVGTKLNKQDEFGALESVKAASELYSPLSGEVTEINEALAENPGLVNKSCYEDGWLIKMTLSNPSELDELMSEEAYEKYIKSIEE
UniProt P22102: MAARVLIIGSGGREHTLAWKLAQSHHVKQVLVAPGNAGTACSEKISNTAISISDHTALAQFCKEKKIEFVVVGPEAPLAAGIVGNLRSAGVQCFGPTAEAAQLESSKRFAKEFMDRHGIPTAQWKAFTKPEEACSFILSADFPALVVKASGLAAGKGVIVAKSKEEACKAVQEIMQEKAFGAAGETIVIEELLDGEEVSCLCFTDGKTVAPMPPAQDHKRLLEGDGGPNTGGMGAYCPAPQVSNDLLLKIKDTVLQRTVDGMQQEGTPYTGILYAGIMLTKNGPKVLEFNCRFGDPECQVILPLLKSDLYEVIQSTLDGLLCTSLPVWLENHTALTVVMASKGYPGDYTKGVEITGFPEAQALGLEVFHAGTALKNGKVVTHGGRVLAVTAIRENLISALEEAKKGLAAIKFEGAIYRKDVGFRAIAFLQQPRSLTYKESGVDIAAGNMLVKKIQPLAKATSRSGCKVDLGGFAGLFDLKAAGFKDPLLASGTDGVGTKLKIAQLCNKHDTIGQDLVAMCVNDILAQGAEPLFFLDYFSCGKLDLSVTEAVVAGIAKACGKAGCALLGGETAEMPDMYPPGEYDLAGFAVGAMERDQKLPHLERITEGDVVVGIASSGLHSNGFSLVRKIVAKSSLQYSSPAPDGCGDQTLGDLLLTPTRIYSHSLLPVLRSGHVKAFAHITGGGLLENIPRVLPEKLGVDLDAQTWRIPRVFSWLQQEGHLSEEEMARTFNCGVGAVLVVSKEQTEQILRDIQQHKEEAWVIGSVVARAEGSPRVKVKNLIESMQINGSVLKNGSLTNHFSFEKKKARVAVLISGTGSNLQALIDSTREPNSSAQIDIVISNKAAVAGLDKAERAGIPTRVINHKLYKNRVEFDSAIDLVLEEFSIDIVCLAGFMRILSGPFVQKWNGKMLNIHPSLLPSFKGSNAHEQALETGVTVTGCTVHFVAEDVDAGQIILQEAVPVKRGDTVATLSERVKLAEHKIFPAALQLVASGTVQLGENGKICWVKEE

Experiments:
Test in all cases: log2 fold change, soluble protein after heating vs DMSO (PISA); higher = thermal stabilisation; K562 lysate, 10 uM; active = over 0.2 and 3.5 SD of the protein, either way, in both replicates (recomputed)
[1] = compound: CN1CC[C@H](c2c(O)cc(O)c3c(=O)cc(-c4ccccc4Cl)oc23)[C@H](O)C1 [alvocidib]
Summary of the method: (§1)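 Following dounce homogenisation of K562 pellets in PBS pH 7.4 with 1 mM MgCl2, crude extract at 1 mg/mL protein was incubated for 30 min with 10 μM compound. Aliquots were then heated for 3 min over 48°C-58°C and pooled, NP-40 was added to 0.5% at 4°C, and soluble protein was recovered as the supernatant at 21,000xg for 90 min. Channel-sum-equalised TMTpro 16plex LC-MS/MS quantified this protein. Each value, from duplicates, is a log-two fold change in thermal stability relative to solvent controls.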

[2] = compound: CN1CCc2c(c3ccccc3n2Cc2ccc(C(=O)NO)cc2)C1 [Tubastatin A]
Summary of the method: as §1

[3] = compound: CNC(=O)C1=CC=CC=C1NC2=NC(=NC=C2Cl)NC3=C(C=C(C=C3)N4CCOCC4)OC
Summary of the method: as §1

[4] = compound: CNC(=O)c1ccc(Nc2ncc(C(F)(F)F)c(NCc3nccnc3N(C)S(C)(=O)=O)n2)cc1 [defactinib]
Summary of the method: as §1

[5] = compound: CNc1nc(-c2ccc3c(N)n[nH]c3c2)cc(N2C[C@@H](C(=O)NC3CCCCC3)CC[C@H]2C)n1
Summary of the method: as §1

[6] = compound: COC(=O)N[C@@H](C)CNc1nccc(-c2cn(C(C)C)nc2-c2cc(Cl)cc(NS(C)(=O)=O)c2F)n1 [encorafenib]
Summary of the method: as §1

[7] = compound: COC(=O)[C@H](CCSC)NC(=O)C1=C(C=C(C=C1)NC[C@H](CS)N)C2=CC=CC=C2
Summary of the method: as §1

[8] = compound: COc1cc(Nc2ncc3c(n2)-c2ccc(Cl)cc2C(c2c(F)cccc2OC)=NC3)ccc1C(=O)O [alisertib]
Summary of the method: as §1

[9] = compound: COc1cc2nc(-c3cc(F)ccc3O)nc(N[C@@H]3CNC[C@H]3C(C)(C)O)c2cc1OC
Summary of the method: as §1

[10] = compound: COc1cc2ncnc(Nc3ccc(F)c(Cl)c3)c2cc1OCCCN1CCOCC1 [gefitinib]
Summary of the method: as §1

[11] = compound: CS(=O)(=O)CCNCc1ccc(-c2ccc3ncnc(Nc4ccc(OCc5cccc(F)c5)c(Cl)c4)c3c2)o1 [lapatinib]
Summary of the method: as §1

[12] = compound: CS(=O)(=O)N1CCN(Cc2cc3nc(-c4cccc5[nH]ncc45)nc(N4CCOCC4)c3s2)CC1 [pictilisib]
Summary of the method: as §1

[13] = compound: C[C@@H](Oc1cc(-c2cnn(C3CCNCC3)c2)cnc1N)c1c(Cl)ccc(F)c1Cl [crizotinib]
Summary of the method: as §1

[14] = compound: C[C@H](C1=CC=C(C=C1)C(=O)NC2=C3C=CNC3=NC=C2)N
Summary of the method: as §1

[15] = compound: C[C@H](Nc1ncnc2nc[nH]c12)c1cc2cccc(Cl)c2c(=O)n1-c1ccccc1 [duvelisib]
Summary of the method: as §1

[16] = compound: Cc1cc(Nc2cc(CN3CCOCC3)c3nc(C)c(Cc4ccc(Cl)cc4F)n3n2)n[nH]1 [gandotinib]
Summary of the method: as §1

[17] = compound: Cc1cc(Nc2cc(N3CCN(C)CC3)nc(Sc3ccc(NC(=O)C4CC4)cc3)n2)n[nH]1 [tozasertib]
Summary of the method: as §1

[18] = compound: Cc1ccc(-n2nc(C(C)(C)C)cc2NC(=O)Nc2ccc(OCCN3CCOCC3)c3ccccc23)cc1 [doramapimod]
Summary of the method: as §1

[19] = compound: Cc1ccc(NC(=O)c2ccc(CN3CC[C@H](N(C)C)C3)c(C(F)(F)F)c2)cc1Nc1nccc(-c2cncnc2)n1 [bafetinib]
Summary of the method: as §1

[20] = compound: Cc1cccc(CC(=O)N2CCc3c2ccc(-c2cn(C)c4ncnc(N)c24)c3F)n1
Summary of the method: as §1

Target | log2 fold change [1] | log2 fold change [2] | log2 fold change [3] | log2 fold change [4] | log2 fold change [5] | log2 fold change [6] | log2 fold change [7] | log2 fold change [8] | log2 fold change [9] | log2 fold change [10] | log2 fold change [11] | log2 fold change [12] | log2 fold change [13] | log2 fold change [14] | log2 fold change [15] | log2 fold change [16] | log2 fold change [17] | log2 fold change [18] | log2 fold change [19] | log2 fold change [20]
G3BP1 (UniProt Q13283) | inactive: -0.039 | inactive: 0.023 | inactive: -0.006 | inactive: 0.026 | inactive: -0.016 | inactive: 0.009 | inactive: 0.045 | inactive: 0.028 | inactive: -0.012 | inactive: -0.005 | inactive: -0.001 | inactive: -0.011 | inactive: 0.007 | inactive: -0.106 | inactive: 0.02 | inactive: 0.053 | inactive: -0.005 | inactive: -0.004 | inactive: 0.032 | inactive: 0.071
GDPD1 (UniProt Q8N9F7) | inactive: 0 | inactive: -0.023 | inactive: 0.006 | inactive: -0.03 | inactive: 0.046 | inactive: 0.059 | active: -0.272 | inactive: -0.018 | inactive: -0.027 | inactive: -0.035 | inactive: 0.03 | inactive: -0.042 | inactive: -0.157 | inactive: 0.001 | inactive: 0.049 | inactive: 0.164 | inactive: -0.029 | inactive: 0.027 | inactive: 0.022 | inactive: 0.007
FUNDC2 (UniProt Q9BWH2) | inactive: -0.022 | inactive: 0.01 | inactive: 0.001 | inactive: -0.056 | inactive: -0.018 | inactive: -0.059 | inactive: -0.012 | inactive: -0.014 | inactive: -0.002 | inactive: 0.025 | inactive: -0.012 | inactive: -0.007 | inactive: 0.022 | inactive: -0.046 | inactive: -0.006 | inactive: 0.078 | inactive: -0.035 | inactive: -0.046 | inactive: -0.013 | inactive: 0.038
GARS1 (UniProt P41250) | inactive: 0.003 | inactive: 0.051 | inactive: -0.01 | inactive: -0.013 | inactive: 0.024 | inactive: -0.035 | inactive: -0.124 | inactive: 0.004 | inactive: 0.016 | inactive: 0.003 | inactive: -0.005 | inactive: 0.002 | inactive: 0.032 | inactive: 0.007 | inactive: 0.019 | inactive: 0.021 | inactive: 0.004 | inactive: -0.009 | inactive: 0.038 | inactive: -0.023
GATD1 (UniProt Q8NB37) | inactive: -0.03 | inactive: 0.077 | inactive: -0.084 | inactive: -0.036 | inactive: -0.05 | inactive: 0.018 | inactive: -0.015 | inactive: -0.006 | inactive: -0.033 | inactive: -0.004 | inactive: -0.074 | inactive: -0.007 | inactive: -0.068 | inactive: -0.115 | inactive: 0.025 | inactive: 0.041 | inactive: -0.015 | inactive: 0.01 | inactive: -0.006 | inactive: 0.062
GCC2 (UniProt Q8IWJ2) | inactive: -0.031 | inactive: -0.016 | inactive: 0.027 | inactive: -0.015 | inactive: 0.017 | inactive: 0.031 | inactive: -0.017 | inactive: -0.016 | inactive: -0.006 | inactive: 0.006 | inactive: 0.015 | inactive: 0.004 | inactive: 0.001 | inactive: -0.054 | inactive: 0.012 | inactive: 0.045 | inactive: 0.008 | inactive: 0.046 | inactive: -0.025 | inactive: 0.029
GDAP2 (UniProt Q9NXN4) | inactive: 0.032 | inactive: -0.153 | inactive: 0.05 | inactive: -0.028 | inactive: -0.022 | inactive: -0.008 | inactive: 0.07 | inactive: 0.003 | inactive: -0.082 | inactive: 0.009 | inactive: 0.086 | inactive: -0.089 | inactive: -0.012 | inactive: -0.005 | inactive: 0.027 | inactive: -0.076 | inactive: 0.005 | inactive: -0.063 | inactive: -0.028 | inactive: 0.005
GABARAPL2 (UniProt P60520) | inactive: 0.007 | inactive: 0.072 | inactive: -0.017 | inactive: 0.008 | inactive: 0.003 | inactive: -0.029 | inactive: -0.071 | inactive: -0.027 | inactive: 0.011 | inactive: 0.015 | inactive: -0.02 | inactive: 0.004 | inactive: 0.031 | inactive: -0.005 | inactive: 0.018 | inactive: 0.005 | inactive: 0.024 | inactive: -0.008 | inactive: -0.022 | inactive: -0.043
GAPVD1 isoform 6 (UniProt Q14C86) | inactive: 0.01 | inactive: -0.112 | inactive: 0.015 | inactive: 0.018 | inactive: -0.04 | inactive: 0.014 | inactive: 0.097 | inactive: 0.005 | inactive: -0.017 | inactive: -0.012 | inactive: 0 | inactive: -0.017 | inactive: -0.023 | inactive: 0.054 | inactive: 0.011 | inactive: -0.088 | inactive: -0.002 | inactive: 0.025 | inactive: -0.022 | inactive: -0.018
GBF1 (UniProt Q92538) | inactive: 0 | inactive: -0.041 | inactive: 0.032 | inactive: 0.007 | inactive: 0.004 | inactive: 0.036 | inactive: -0.031 | inactive: 0.002 | inactive: -0.008 | inactive: -0.03 | inactive: -0.015 | inactive: -0.023 | inactive: -0.064 | inactive: -0.026 | inactive: -0.002 | inactive: -0.108 | inactive: 0.014 | inactive: -0.006 | inactive: -0.043 | inactive: 0.049
GCDH (UniProt Q92947) | inactive: 0.018 | inactive: -0.069 | inactive: -0.049 | inactive: 0.004 | inactive: 0.057 | inactive: -0.049 | inactive: 0.159 | inactive: 0.049 | inactive: 0.006 | inactive: -0.004 | inactive: 0.016 | inactive: 0.012 | inactive: -0.017 | inactive: 0.013 | inactive: 0.19 | inactive: -0.005 | inactive: 0.007 | inactive: -0.026 | inactive: 0.047 | inactive: -0.004
GAB1 isoform 2 (UniProt Q13480) | inactive: -0.059 | inactive: -0.026 | inactive: -0.009 | inactive: -0.008 | inactive: 0.023 | inactive: -0.019 | inactive: 0.006 | inactive: -0.008 | inactive: 0.013 | inactive: 0.075 | inactive: -0.023 | inactive: 0.002 | inactive: -0.025 | inactive: -0.133 | inactive: 0.063 | inactive: 0.036 | inactive: 0.01 | inactive: 0.085 | inactive: -0.072 | inactive: 0.15
GFM1 (UniProt Q96RP9) | inactive: 0.009 | inactive: -0.031 | inactive: 0.011 | inactive: 0.008 | inactive: 0.004 | inactive: -0.049 | inactive: 0.147 | inactive: 0.008 | inactive: -0.015 | inactive: -0.009 | inactive: 0.007 | inactive: -0.015 | inactive: -0.041 | inactive: -0.018 | inactive: -0.052 | inactive: 0.003 | inactive: 0.029 | inactive: 0.023 | inactive: -0.032 | inactive: 0.006
GATAD2B (UniProt Q8WXI9) | inactive: -0.01 | inactive: -0.005 | inactive: 0.003 | inactive: -0.002 | inactive: 0.017 | inactive: -0.007 | inactive: 0 | inactive: -0.021 | inactive: 0.021 | inactive: -0.051 | inactive: 0.024 | inactive: 0.008 | inactive: -0.032 | inactive: 0.02 | inactive: -0.044 | inactive: 0.015 | inactive: 0.067 | inactive: -0.011 | inactive: -0.022 | inactive: -0.01
GCSH (UniProt P23434) | inactive: -0.054 | inactive: 0.127 | inactive: -0.001 | inactive: 0.043 | inactive: -0.005 | inactive: 0.01 | inactive: -0.042 | inactive: -0.037 | inactive: -0.017 | inactive: 0.008 | inactive: 0.084 | inactive: 0.079 | inactive: 0.021 | inactive: -0.099 | inactive: 0.01 | inactive: 0.041 | inactive: -0.079 | inactive: -0.046 | inactive: 0.072 | inactive: 0.062
GART (UniProt P22102) | inactive: 0.021 | inactive: -0.073 | inactive: 0.002 | inactive: -0.024 | inactive: 0.021 | inactive: -0.027 | inactive: 0.08 | inactive: 0.008 | inactive: -0.004 | inactive: -0.017 | inactive: -0.008 | inactive: -0.024 | inactive: -0.017 | inactive: 0.062 | inactive: -0.014 | inactive: -0.052 | inactive: -0.004 | inactive: 0 | inactive: -0.001 | inactive: -0.026

An excerpt of these results, in CSV form.
Target,log2 fold change [1],log2 fold change [2],log2 fold change [3],log2 fold change [4],log2 fold change [5],log2 fold change [6],log2 fold change [7],log2 fold change [8],log2 fold change [9],log2 fold change [10],log2 fold change [11],log2 fold change [12],log2 fold change [13],log2 fold change [14],log2 fold change [15],log2 fold change [16],log2 fold change [17],log2 fold change [18],log2 fold change [19],log2 fold change [20]
GATAD2B (UniProt Q8WXI9),inactive: -0.01,inactive: -0.005,inactive: 0.003,inactive: -0.002,inactive: 0.017,inactive: -0.007,inactive: 0,inactive: -0.021,inactive: 0.021,inactive: -0.051,inactive: 0.024,inactive: 0.008,inactive: -0.032,inactive: 0.02,inactive: -0.044,inactive: 0.015,inactive: 0.067,inactive: -0.011,inactive: -0.022,inactive: -0.01
GCSH (UniProt P23434),inactive: -0.054,inactive: 0.127,inactive: -0.001,inactive: 0.043,inactive: -0.005,inactive: 0.01,inactive: -0.042,inactive: -0.037,inactive: -0.017,inactive: 0.008,inactive: 0.084,inactive: 0.079,inactive: 0.021,inactive: -0.099,inactive: 0.01,inactive: 0.041,inactive: -0.079,inactive: -0.046,inactive: 0.072,inactive: 0.062
